The text below walks through data of the supplement of paper PMC10849652.

By UniProt entry, the sequences of proteins in these tests, tags left out. Where a name states a change or a piece, a line headed by the entry shows the natural chain unless it says otherwise.
UniProt Q9P013: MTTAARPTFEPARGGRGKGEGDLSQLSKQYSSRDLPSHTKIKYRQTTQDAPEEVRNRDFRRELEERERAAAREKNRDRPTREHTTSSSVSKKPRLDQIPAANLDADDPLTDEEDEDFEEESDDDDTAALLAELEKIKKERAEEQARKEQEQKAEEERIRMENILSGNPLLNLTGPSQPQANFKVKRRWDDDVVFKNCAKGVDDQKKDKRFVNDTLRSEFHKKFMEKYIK
UniProt P0DMU9: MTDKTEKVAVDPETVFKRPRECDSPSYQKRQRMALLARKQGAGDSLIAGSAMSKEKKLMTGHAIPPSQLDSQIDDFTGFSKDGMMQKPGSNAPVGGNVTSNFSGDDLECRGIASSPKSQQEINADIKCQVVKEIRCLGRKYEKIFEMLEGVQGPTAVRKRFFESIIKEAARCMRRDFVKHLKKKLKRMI
UniProt P50461: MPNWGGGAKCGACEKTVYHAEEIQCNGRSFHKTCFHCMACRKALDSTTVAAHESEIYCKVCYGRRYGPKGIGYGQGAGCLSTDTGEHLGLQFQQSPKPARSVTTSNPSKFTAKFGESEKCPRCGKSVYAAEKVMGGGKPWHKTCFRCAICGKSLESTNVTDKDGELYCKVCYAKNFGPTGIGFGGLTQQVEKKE
UniProt P32929, whole entry, looked up: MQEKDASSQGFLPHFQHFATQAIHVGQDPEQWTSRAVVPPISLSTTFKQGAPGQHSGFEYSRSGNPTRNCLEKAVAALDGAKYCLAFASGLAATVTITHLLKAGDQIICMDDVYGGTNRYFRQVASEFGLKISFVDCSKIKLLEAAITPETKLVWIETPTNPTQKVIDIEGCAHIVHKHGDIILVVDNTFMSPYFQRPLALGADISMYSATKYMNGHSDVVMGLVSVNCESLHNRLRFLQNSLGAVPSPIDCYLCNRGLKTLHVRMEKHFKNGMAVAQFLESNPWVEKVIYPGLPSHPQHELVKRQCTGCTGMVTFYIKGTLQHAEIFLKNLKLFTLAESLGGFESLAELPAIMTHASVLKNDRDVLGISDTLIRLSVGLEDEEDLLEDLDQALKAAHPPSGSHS
UniProt O95476: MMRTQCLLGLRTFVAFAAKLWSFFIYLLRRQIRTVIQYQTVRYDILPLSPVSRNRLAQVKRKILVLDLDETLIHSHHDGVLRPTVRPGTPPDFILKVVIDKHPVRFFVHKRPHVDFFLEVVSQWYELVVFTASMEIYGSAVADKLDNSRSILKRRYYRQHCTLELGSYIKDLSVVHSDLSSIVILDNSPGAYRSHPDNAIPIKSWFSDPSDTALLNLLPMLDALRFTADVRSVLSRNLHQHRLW
UniProt Q13617, whole entry, looked up: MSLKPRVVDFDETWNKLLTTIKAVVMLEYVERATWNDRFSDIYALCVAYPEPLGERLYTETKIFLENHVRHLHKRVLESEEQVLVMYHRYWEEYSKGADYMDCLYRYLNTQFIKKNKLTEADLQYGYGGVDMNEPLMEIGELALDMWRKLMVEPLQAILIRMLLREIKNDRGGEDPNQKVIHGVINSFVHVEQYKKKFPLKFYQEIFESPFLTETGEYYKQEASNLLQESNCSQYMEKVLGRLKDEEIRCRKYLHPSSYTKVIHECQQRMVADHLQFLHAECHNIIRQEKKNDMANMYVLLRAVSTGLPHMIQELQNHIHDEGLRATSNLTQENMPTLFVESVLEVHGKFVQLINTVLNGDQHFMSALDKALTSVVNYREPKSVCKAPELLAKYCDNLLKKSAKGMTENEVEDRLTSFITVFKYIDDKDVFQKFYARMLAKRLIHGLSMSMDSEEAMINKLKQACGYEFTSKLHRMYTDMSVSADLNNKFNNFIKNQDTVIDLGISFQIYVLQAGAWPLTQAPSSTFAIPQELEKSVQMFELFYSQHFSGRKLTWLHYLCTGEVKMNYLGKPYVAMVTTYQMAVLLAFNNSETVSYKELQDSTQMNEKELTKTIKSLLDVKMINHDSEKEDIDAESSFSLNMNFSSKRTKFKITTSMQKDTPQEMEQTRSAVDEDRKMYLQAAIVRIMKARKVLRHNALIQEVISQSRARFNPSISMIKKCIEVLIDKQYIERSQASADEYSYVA
UniProt Q9Y4B6: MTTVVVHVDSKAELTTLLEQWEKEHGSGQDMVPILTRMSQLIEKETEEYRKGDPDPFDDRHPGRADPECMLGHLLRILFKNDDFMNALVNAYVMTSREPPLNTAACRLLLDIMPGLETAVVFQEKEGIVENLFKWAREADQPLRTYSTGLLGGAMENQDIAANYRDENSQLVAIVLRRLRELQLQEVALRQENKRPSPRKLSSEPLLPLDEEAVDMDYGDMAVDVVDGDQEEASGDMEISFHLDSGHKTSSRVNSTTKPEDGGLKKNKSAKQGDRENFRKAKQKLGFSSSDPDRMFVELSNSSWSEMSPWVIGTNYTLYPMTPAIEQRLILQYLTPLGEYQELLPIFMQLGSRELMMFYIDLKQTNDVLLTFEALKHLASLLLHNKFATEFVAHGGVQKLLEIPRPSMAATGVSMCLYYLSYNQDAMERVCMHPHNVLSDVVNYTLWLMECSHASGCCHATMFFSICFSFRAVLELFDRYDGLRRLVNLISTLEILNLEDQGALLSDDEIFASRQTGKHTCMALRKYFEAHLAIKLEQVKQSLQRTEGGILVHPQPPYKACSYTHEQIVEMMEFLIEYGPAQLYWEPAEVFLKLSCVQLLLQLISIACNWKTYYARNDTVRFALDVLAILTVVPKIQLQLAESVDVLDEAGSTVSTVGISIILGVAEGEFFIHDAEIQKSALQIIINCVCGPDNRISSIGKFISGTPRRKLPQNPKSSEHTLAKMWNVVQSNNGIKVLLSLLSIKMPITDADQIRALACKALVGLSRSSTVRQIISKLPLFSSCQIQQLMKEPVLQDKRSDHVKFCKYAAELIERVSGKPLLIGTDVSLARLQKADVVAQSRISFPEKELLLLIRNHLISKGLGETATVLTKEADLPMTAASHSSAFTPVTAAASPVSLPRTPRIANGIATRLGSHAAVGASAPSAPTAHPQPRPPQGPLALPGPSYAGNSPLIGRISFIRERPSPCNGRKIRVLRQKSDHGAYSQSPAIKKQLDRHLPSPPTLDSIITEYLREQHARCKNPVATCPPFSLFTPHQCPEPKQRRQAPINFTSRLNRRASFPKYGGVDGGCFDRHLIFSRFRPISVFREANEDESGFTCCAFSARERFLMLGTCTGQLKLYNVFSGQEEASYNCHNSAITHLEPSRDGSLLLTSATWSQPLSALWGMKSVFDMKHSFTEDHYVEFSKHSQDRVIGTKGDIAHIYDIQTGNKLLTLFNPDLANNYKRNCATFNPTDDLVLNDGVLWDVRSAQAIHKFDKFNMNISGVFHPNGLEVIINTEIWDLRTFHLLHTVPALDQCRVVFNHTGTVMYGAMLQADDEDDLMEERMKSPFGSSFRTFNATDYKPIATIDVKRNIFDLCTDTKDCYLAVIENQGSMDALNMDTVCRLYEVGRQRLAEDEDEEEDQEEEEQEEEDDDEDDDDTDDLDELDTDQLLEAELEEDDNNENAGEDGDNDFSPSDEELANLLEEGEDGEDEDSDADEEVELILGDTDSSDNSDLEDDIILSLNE
UniProt Q9UER7, whole entry, looked up: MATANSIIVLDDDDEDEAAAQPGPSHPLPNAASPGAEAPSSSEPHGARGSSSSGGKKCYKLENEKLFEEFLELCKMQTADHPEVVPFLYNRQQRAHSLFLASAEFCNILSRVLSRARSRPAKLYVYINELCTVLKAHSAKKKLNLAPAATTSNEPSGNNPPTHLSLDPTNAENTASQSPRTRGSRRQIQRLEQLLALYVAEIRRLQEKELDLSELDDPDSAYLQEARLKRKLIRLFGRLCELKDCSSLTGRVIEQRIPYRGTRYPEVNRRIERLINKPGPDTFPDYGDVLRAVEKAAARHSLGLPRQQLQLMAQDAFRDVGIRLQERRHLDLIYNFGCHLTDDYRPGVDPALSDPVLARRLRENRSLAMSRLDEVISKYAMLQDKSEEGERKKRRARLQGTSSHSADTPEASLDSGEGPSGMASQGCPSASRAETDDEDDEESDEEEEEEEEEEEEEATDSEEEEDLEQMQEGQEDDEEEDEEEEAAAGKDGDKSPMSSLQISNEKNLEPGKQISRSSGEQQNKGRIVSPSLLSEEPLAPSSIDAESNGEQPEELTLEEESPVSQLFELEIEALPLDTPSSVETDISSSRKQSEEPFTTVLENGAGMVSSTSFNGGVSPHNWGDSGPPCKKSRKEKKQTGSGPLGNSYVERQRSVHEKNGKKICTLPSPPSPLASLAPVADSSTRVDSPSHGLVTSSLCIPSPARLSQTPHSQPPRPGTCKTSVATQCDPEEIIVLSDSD
UniProt Q9P0U4, whole entry, looked up: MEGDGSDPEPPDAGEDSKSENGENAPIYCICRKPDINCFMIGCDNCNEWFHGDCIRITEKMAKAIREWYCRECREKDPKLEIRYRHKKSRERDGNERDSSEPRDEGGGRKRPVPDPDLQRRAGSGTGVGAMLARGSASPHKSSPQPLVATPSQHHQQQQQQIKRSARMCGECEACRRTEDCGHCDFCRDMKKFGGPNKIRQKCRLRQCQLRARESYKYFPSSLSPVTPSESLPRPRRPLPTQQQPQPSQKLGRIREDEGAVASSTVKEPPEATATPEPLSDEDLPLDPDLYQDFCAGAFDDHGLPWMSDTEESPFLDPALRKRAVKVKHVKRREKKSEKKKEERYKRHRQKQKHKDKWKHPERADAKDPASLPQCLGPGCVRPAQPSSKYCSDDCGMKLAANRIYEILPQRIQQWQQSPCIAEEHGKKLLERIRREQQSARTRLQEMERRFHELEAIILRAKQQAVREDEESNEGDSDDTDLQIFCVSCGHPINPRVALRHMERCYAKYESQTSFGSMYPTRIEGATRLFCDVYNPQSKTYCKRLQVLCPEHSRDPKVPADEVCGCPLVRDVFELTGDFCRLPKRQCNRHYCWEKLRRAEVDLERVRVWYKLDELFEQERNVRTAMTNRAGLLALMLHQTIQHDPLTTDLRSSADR
UniProt P08574: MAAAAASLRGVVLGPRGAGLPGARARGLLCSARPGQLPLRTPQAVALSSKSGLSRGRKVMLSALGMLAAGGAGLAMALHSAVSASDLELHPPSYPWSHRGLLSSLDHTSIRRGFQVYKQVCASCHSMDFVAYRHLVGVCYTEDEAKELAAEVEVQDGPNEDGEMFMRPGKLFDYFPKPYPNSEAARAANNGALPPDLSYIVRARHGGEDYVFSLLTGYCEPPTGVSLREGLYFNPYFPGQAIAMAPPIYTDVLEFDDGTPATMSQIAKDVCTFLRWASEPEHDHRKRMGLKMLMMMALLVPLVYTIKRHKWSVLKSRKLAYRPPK
UniProt Q9UJW0, whole entry, looked up: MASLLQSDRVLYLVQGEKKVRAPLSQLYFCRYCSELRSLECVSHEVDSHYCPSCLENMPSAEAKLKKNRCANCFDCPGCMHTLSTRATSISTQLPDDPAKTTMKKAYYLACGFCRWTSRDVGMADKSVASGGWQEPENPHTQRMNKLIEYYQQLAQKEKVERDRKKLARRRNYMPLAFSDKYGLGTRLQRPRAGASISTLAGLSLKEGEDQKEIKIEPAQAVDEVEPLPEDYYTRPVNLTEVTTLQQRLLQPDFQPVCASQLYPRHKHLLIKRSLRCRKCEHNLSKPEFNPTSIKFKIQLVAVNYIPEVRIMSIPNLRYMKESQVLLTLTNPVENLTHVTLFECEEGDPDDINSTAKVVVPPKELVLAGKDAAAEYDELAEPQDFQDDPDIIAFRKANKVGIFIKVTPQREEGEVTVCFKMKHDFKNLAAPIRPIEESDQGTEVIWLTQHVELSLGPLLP
UniProt Q13619, whole entry, looked up: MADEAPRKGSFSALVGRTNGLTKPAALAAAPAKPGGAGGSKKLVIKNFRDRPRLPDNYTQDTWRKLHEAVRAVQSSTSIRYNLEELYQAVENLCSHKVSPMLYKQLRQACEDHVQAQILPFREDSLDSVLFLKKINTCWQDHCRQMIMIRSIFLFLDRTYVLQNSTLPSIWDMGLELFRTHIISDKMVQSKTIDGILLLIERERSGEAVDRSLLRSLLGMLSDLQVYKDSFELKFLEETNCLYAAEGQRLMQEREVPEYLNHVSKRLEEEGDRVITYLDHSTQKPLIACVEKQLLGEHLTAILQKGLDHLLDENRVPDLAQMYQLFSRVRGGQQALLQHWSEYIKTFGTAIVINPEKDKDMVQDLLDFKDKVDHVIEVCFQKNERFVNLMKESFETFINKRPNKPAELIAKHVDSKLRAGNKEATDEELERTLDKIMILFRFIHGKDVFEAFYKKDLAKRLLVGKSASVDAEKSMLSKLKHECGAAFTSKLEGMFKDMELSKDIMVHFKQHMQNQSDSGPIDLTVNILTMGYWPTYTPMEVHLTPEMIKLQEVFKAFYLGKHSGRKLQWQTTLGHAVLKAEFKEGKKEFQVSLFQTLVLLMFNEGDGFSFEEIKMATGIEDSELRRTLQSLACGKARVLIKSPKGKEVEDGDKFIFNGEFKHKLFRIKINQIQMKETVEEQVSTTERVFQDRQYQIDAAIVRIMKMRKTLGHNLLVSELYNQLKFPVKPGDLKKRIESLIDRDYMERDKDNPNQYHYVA

The list shows a part of the results.

Compound in this test: O=C(CCCCCCC(=O)Nc1ccccc1)NO [vorinostat]
As to the kind of experiment: log2 fold change, soluble protein after heating vs DMSO (PISA); higher = thermal stabilisation; K562 cells, 10 uM, 30 min; active = over 0.2 and 3.5 SD of the protein, either way, in both replicates (recomputed). The gist of the method:
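Thermal stability values are relative to control samples and come from duplicates. They are expressed as log2 fold changes. For measurement, K562 cells (2×10^6 cells/mL) received 10 μM compound for 30 min, and aliquots were heated for 3 min over 48°C-58°C, pooled, and extracted at 4°C in PBS with 0.5% NP-40. Soluble protein, the supernatant after 21,000xg for 90 min, was quantified by TMTpro 16plex LC-MS/MS with equalised channel sums.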
In the case of CWC15 (UniProt Q9P013), the log2 fold change was inactive: -0.101.
For CT45A5 (UniProt P0DMU8) the value was inactive: 0.031.
The figure for CT45A10 (UniProt P0DMU9) is inactive: -0.002; for DCP1A (UniProt Q9NPI6) it is inactive: -0.173; for CSRP3 (UniProt P50461) it is inactive: -0.041.
As to CYP46A1 (UniProt Q9Y6A2), the log2 fold change is inactive: -0.189.
For CXorf38 (UniProt Q8TB03) the value was inactive: 0.046; for CT55 (UniProt Q8WUE5), inactive: 0.086.
The figure for CTH (UniProt P32929) is inactive: -0.061.
For CUL1 (UniProt Q13616), the log2 fold change was inactive: -0.004.
Regarding CTDNEP1 (UniProt O95476), the log2 fold change is inactive: 0.034.
For CUTC (UniProt Q9NTM9) the value was inactive: -0.002; for CSRP1 (UniProt P21291), inactive: -0.026.
The figure for CUL2 isoform 2 (UniProt Q13617) is inactive: 0.022; for DCTN2 isoform 2 (UniProt Q13561) it is inactive: -0.018; for DCAF1 (UniProt Q9Y4B6) it is inactive: 0.03.
For DAXX (UniProt Q9UER7) the value was inactive: 0.034; for CWC25 (UniProt Q9NXE8), inactive: -0.099.
Turning to CXXC1 isoform 2 (UniProt Q9P0U4), the log2 fold change was inactive: -0.032.
The figure for CYP2S1 isoform 2 (UniProt Q96SQ9) is inactive: 0.375.
For CYC1 (UniProt P08574) the value was inactive: -0.032.
The figure for DCTN4 (UniProt Q9UJW0) is inactive: -0.013; for CUL4A (UniProt Q13619) it is inactive: 0.003.
